B1: XPC (protein, UniProt Q01831 2-940, looked up)
DNA repair protein …: ARKRAAGGEPRGRELRSQKSKAKSKARREEEEEDAFEDEKPPKKSLLSKVSQGKRKRGCSHPGGSADGPAKKKVAKVTVKSENLKVIKDEALSDGDDLRDFPSDLKKAHHLKRGATMNEDSNEEEEESENDWEEVEELSEPVLGDVRESTAFSRSLLPVKPVEIEIETPEQAKTRERSEKIKLEFETYLRRAMKRFNKGVHEDTHKVHLLCLLANGFYRNNICSQPDLHAIGLSIIPARFTRVLPRDVDTYYLSNLVKWFIGTFTVNAELSASEQDNLQTTLERRFAIYSARDDEELVHIFLLILRALQLLTRLVLSLQPIPLKSATAKGKKPSKERLTADPGGSSETSSQVLENHTKPKTSKGTKQEETFAKGTCRPSAKGKRNKGGRKKRSKPSSSEEDEGPGDKQEKATQRRPHGRERRVASRVSYKEESGSDEAGSGSDFELSSGEASDPSDEDSEPGPPKQRKAPAPQRTKAGSKSASRTHRGSHRKDPSLPAASSSSSSSKRGKKMCSDGEKAEKRSIAGIDQWLEVFCEQEEKWVCVDCVHGVVGQPLTCYKYATKPMTYVVGIDSDGWVRDVTQRYDPVWMTVTRKCRVDAEWWAETLRPYQSPFMDREKKEDLEFQAKHMDQPLPTAIGLYKNHPLYALKRHLLKYEAIYPETAAILGYCRGEAVYSRDCVHTLHSRDTWLKKARVVRLGEVPYKMVKGFSNRARKARLAEPQLREENDLGLFGYWQTEEYQPPVAVDGKVPRNEFGNVYLFLPSMMPIGCVQLNLPNLHRVARKLDIDCVQAITGFDFHGGYSHPVTDGYIVCEEFKDVLLTAWENEQAVIERKEKEKKEKRALGNWKLLAKGLLIRERLKRRYGPKSEAAAPHTDAGGGLSSDEEEGTSSQAEAARILAASWPQNREDEEKQKLKGGPKKTKREKKAAASHLFPFEQL
B2: SRSF12 (protein, UniProt Q8WXF0 1-261, looked up)
Serine/arginine-rich splicing …: MSRYTRPPNTSLFIRNVADATRPEDLRREFGRYGPIVDVYIPLDFYTRRPRGFAYVQFEDVRDAEDALYNLNRKWVCGRQIEIQFAQGDRKTPGQMKSKERHPCSPSDHRRSRSPSQRRTRSRSSSWGRNRRRSDSLKESRHRRFSYSQSKSRSKSLPRRSTSARQSRTPRRNFGSRGRSRSKSLQKRSKSIGKSQSSSPQKQTSSGTKSRSHGRHSDSIARSPCKSPKGYTNSETKVQTAKHSHFRSHSRSRSYRHKNSW
B3: RPRD2 (protein, UniProt Q5VT52 2-1461, looked up)
Regulation of nuclear …: AAGGGGGSSKASSSSASSAGALESSLDRKFQSVTNTMESIQGLSSWCIENKKHHSTIVYHWMKWLRRSAYPHRLNLFYLANDVIQNCKRKNAIIFRESFADVLPEAAALVKDPSVSKSVERIFKIWEDRNVYPEEMIVALREALSTTFKTQKQLKENLNKQPNKQWKKSQTSTNPKAALKSKIVAEFRSQALIEELLLYKRSEDQIELKEKQLSTMRVDVCSTETLKCLKDKTGGKKFSKEFEEASSKLEEFVNGLDKQVKNGPSLTEALENAGIFYEAQYKEVKVVANAYKTFANRVNNLKKKLDQLKSTLPDPEESPVPSPSMDAPSPTGSESPFQGMGGEESQSPTMESEKSATPEPVTDNRDVEDMELSDVEDDGSKIIVEDRKEKPAEKSAVSTSVPTKPTENISKASSCTPVPVTMTATPPLPKPVNTSLSPSPALALPNLANVDLAKISSILSSLTSVMKNTGVSPASRPSPGTPTSPSNLTSGLKTPAPATTTSHNPLANILSKVEITPESILSALSKTQTQSAPALQGLSSLLQSVTGNPVPASEAASQSTSASPANTTVSTIKGRNLPSSAQPFIPKSFNYSPNSSTSEVSSTSASKASIGQSPGLPSTTFKLPSNSLGFTATHNTSPAAPPTEVTICQSSEVSKPKLESESTSPSLEMKIHNFLKGNPGFSGLNLNIPILSSLGSSAPSESHPSDFQRGPTSTSIDNIDGTPVRDERSGTPTQDEMMDKPTSSSVDTMSLLSKIISPGSSTPSSTRSPPPGRDESYPRELSNSVSTYRPFGLGSESPYKQPSDGMERPSSLMDSSQEKFYPDTSFQEDEDYRDFEYSGPPPSAMMNLEKKPAKSILKSSKLSDTTEYQPILSSYSHRAQEFGVKSAFPPSVRALLDSSENCDRLSSSPGLFGAFSVRGNEPGSDRSPSPSKNDSFFTPDSNHNSLSQSTTGHLSLPQKQYPDSPHPVPHRSLFSPQNTLAAPTGHPPTSGVEKVLASTISTTSTIEFKNMLKNASRKPSDDKHFGQAPSKGTPSDGVSLSNLTQPSLTATDQQQQEEHYRIETRVSSSCLDLPDSTEEKGAPIETLGYHSASNRRMSGEPIQTVESIRVPGKGNRGHGREASRVGWFDLSTSGSSFDNGPSSASELASLGGGGSGGLTGFKTAPYKERAPQFQESVGSFRSNSFNSTFEHHLPPSPLEHGTPFQREPVGPSSAPPVPPKDHGGIFSRDAPTHLPSVDLSNPFTKEAALAHAAPPPPPGEHSGIPFPTPPPPPPPGEHSSSGGSGVPFSTPPPPPPPVDHSGVVPFPAPPLAEHGVAGAVAVFPKDHSSLLQGTLAEHFGVLPGPRDHGGPTQRDLNGPGLSRVRESLTLPSHSLEHLGPPHGGGGGGGSNSSSGPPLGPSHRDTISRSGIILRSPRPDFRPREPFLSRDPFHSLKRPRPPFARGPPFFAPKRPFFPPRY
B4: RFC1 (protein, UniProt P35251 1-1148, looked up)
Replication factor C subunit 1: MDIRKFFGVIPSGKKLVSETVKKNEKTKSDEETLKAKKGIKEIKVNSSRKEDDFKQKQPSKKKRIIYDSDSESEETLQVKNAKKPPEKLPVSSKPGKISRQDPVTYISETDEEDDFMCKKAASKSKENGRSTNSHLGTSNMKKNEENTKTKNKPLSPIKLTPTSVLDYFGTGSVQRSNKKMVASKRKELSQNTDESGLNDEAIAKQLQLDEDAELERQLHEDEEFARTLAMLDEEPKTKKARKDTEAGETFSSVQANLSKAEKHKYPHKVKTAQVSDERKSYSPRKQSKYESSKESQQHSKSSADKIGEVSSPKASSKLAIMKRKEESSYKEIEPVASKRKENAIKLKGETKTPKKTKSSPAKKESVSPEDSEKKRTNYQAYRSYLNREGPKALGSKEIPKGAENCLEGLIFVITGVLESIERDEAKSLIERYGGKVTGNVSKKTNYLVMGRDSGQSKSDKAAALGTKIIDEDGLLNLIRTMPGKKSKYEIAVETEMKKESKLERTPQKNVQGKRKISPSKKESESKKSRPTSKRDSLAKTIKKETDVFWKSLDFKEQVAEETSGDSKARNLADDSSENKVENLLWVDKYKPTSLKTIIGQQGDQSCANKLLRWLRNWQKSSSEDKKHAAKFGKFSGKDDGSSFKAALLSGPPGVGKTTTASLVCQELGYSYVELNASDTRSKSSLKAIVAESLNNTSIKGFYSNGAASSVSTKHALIMDEVDGMAGNEDRGGIQELIGLIKHTKIPIICMCNDRNHPKIRSLVHYCFDLRFQRPRVEQIKGAMMSIAFKEGLKIPPPAMNEIILGANQDIRQVLHNLSMWCARSKALTYDQAKADSHRAKKDIKMGPFDVARKVFAAGEETAHMSLVDKSDLFFHDYSIAPLFVQENYIHVKPVAAGGDMKKHLMLLSRAADSICDGDLVDSQIRSKQNWSLLPAQAIYASVLPGELMRGYMTQFPTFPSWLGKHSSTGKHDRIVQDLALHMSLRTYSSKRTVNMDYLSLLRDALVQPLTSQGVDGVQDVVALMDTYYLMKEDFENIMEISSWGGKPSPFSKLDPKVKAAFTRAYNKEAHLTPYSLQAIKASRHSTSPSLDSEYNEELNEDDSQSDEKDQDAIETDAMIKKKTKSSKPSKPEKDKEPRKGKGKSSKK
B5: TFIP11 (protein, UniProt Q9UBB9 1-837, looked up)
Tuftelin-interacting protein …: MSLSHLYRDGEGRIDDDDDERENFEITDWDLQNEFNPNRQRHWQTKEEATYGVWAERDSDDERPSFGGKRARDYSAPVNFISAGLKKGAAEEAELEDSDDEEKPVKQDDFPKDFGPRKLKTGGNFKPSQKGFAGGTKSFMDFGSWERHTKGIGQKLLQKMGYVPGRGLGKNAQGIINPIEAKQRKGKGAVGAYGSERTTQSMQDFPVVDSEEEAEEEFQKELSQWRKDPSGSKKKPKYSYKTVEELKAKGRISKKLTAPQKELSQVKVIDMTGREQKVYYSYSQISHKHNVPDDGLPLQSQQLPQSGKEAKAPGFALPELEHNLQLLIDLTEQEIIQNDRQLQYERDMVVNLFHELEKMTEVLDHEERVISNLSKVLEMVEECERRMQPDCSNPLTLDECARIFETLQDKYYEEYRMSDRVDLAVAIVYPLMKEYFKEWDPLKDCTYGTEIISKWKSLLENDQLLSHGGQDLSADAFHRLIWEVWMPFVRNIVTQWQPRNCDPMVDFLDSWVHIIPVWILDNILDQLIFPKLQKEVENWNPLTDTVPIHSWIHPWLPLMQARLEPLYSPIRSKLSSALQKWHPSDSSAKLILQPWKDVFTPGSWEAFMVKNIVPKLGMCLGELVINPHQQHMDAFYWVIDWEGMISVSSLVGLLEKHFFPKWLQVLCSWLSNSPNYEEITKWYLGWKSMFSDQVLAHPSVKDKFNEALDIMNRAVSSNVGAYMQPGARENIAYLTHTERRKDFQYEAMQERREAENMAQRGIGVAASSVPMNFKDLIETKAEEHNIVFMPVIGKRHEGKQLYTFGRIVIYIDRGVVFVQGEKTWVPTSLQSLIDMAK
B6: NOP56 (protein, UniProt O00567 1-594, looked up)
Nucleolar protein 56: MVLLHVLFEHAVGYALLALKEVEEISLLQPQVEESVLNLGKFHSIVRLVAFCPFASSQVALENANAVSEGVVHEDLRLLLETHLPSKKKKVLLGVGDPKIGAAIQEELGYNCQTGGVIAEILRGVRLHFHNLVKGLTDLSACKAQLGLGHSYSRAKVKFNVNRVDNMIIQSISLLDQLDKDINTFSMRVREWYGYHFPELVKIINDNATYCRLAQFIGNRRELNEDKLEKLEELTMDGAKAKAILDASRSSMGMDISAIDLINIESFSSRVVSLSEYRQSLHTYLRSKMSQVAPSLSALIGEAVGARLIAHAGSLTNLAKYPASTVQILGAEKALFRALKTRGNTPKYGLIFHSTFIGRAAAKNKGRISRYLANKCSIASRIDCFSEVPTSVFGEKLREQVEERLSFYETGEIPRKNLDVMKEAMVQAEEAAAEITRKLEKQEKKRLKKEKKRLAALALASSENSSSTPEECEEMSEKPKKKKKQKPQEVPQENGMEDPSISFSKPKKKKSFSKEELMSSDLEETAGSTSIPKRKKSTPKEETVNDPEEAGHRSGSKKKRKFSKEEPVSSGPEEAVGKSSSKKKKKFHKASQED

Tested on: BAF complex subunits and histone proteins
Assay: Mass spectrometry proteomics of purified HA-SS18 WT and HA-SS18-SSX1 complexes (Tables 5A-5E)
Set-up: species or system human
Conditions: for Total / Unique: HA-SS18SSX1_CHR_peptides; for Total: total peptides of the identified protein; for Unique: unique peptides of the identified protein; for Total (total peptides) / Unique (unique peptides) / Total (peptides) / Unique (peptides): HEK-293T
[1] = HA-SS18SSX1 purification, NE (soluble nuclear extract) fraction, peptides per identified protein
[2] = HA-SS18WT_CHR_peptides: protein identified in HA-SS18 WT BAF complex purification from nuclease-treated solubilized chromatin (CHR)
[3] = HA-SS18WT_NE_peptides: HA-SS18 WT complexes purified from nuclear extract (NE), label = protein identified (Gene Symbol)
[4] = HA-SS18SSX1_CHR_peptides: protein identified in the HA-SS18-SSX1 purification from solubilized chromatin (CHR)
[5] = HA-SS18WT_CHR_peptides: HA-SS18 WT purification from nuclease-treated solubilized chromatin (CHR), label = protein identified

Molecule | Total | Unique | Total (total peptides) [1] | Unique (unique peptides) [1] | Total (total peptides) [2] | Unique (unique peptides) [2] | Total (peptides) [3] | Unique (peptides) [3] | Total (total peptides) [4] | Unique (unique peptides) [4] | Total (peptides) [5] | Unique (peptides) [5]
B1 | 3 | 3 | 4 | 4 | 1 | 1 |  |  |  |  |  | 
B2 | 3 | 3 |  |  | 2 | 2 |  |  |  |  |  | 
B3 | 3 | 3 |  |  |  |  |  |  |  |  |  | 
B4 | 3 | 3 | 9 | 9 |  |  | 6 | 6 |  |  |  | 
B5 | 3 | 3 | 10 | 10 |  |  | 9 | 8 |  |  |  | 
B6 |  |  | 16 | 13 |  |  | 10 | 10 | 42 | 31 | 22 | 18

Source: patent publication US20250283871A1, “COMPOSITIONS AND METHODS FOR MODULATING THE INTERACTION BETWEEN SS18-SSX FUSION ONCOPROTEIN AND NUCLEOSOMES” (Dana-Farber Cancer Institute, Inc., priority 2020, published 2025)
